# Data as given in PubChem BioAssay AID1117319 (Southern Research Institute, 2015).
# Sequences of proteins named here, by UniProt entry; tags and fusion partners are left off. A change or cut given only in a name is not applied to a line headed by its entry.
# UniProt P69720: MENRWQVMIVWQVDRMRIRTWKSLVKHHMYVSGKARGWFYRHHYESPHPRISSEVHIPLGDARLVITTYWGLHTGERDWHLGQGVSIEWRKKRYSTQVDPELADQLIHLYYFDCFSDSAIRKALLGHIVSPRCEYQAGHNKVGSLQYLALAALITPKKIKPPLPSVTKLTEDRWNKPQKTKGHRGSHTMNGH
# UniProt P69721: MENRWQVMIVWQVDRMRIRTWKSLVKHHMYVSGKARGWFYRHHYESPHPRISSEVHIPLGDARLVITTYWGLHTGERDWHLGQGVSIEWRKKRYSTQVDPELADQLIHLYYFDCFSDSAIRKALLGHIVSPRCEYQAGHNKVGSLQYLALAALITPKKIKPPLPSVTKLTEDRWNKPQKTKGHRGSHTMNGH
# UniProt P69722: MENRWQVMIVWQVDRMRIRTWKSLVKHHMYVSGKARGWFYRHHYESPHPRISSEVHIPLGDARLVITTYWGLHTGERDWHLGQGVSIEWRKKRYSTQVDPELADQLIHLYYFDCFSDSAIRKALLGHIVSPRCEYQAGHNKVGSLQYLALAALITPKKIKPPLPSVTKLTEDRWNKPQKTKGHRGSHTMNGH
# UniProt P69723: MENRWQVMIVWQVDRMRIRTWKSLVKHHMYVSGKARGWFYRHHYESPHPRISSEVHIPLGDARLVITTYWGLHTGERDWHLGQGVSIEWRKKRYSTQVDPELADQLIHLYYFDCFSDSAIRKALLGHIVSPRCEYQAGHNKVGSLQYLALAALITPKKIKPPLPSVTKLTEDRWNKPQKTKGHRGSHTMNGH
# UniProt Q9HC16: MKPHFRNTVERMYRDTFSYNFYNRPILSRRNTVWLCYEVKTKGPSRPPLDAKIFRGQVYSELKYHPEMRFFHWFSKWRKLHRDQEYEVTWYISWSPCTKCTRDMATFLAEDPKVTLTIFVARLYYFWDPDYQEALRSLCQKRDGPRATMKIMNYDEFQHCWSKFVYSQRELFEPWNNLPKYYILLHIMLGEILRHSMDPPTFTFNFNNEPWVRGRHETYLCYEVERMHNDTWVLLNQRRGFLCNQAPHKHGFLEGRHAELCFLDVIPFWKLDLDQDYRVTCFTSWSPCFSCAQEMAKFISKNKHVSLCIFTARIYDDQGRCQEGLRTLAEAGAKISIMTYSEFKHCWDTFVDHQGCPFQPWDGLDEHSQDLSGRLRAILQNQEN
# Out of some 260,000 compounds screened, about 1,500 (0.58%) were called active. Inconclusive results, whose numbers are uncertain, are shown with a selection of clear calls.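 The calls were made as follows: active = inhibition above a set limit at one or more doses, reproduced on every date tested; inconclusive = results disagree between test dates, or hit never tested in dose response; inactive = the rest.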
# Biological target: Virion infectivity factor (Human immunodeficiency virus type 1 group M subtype B (isolate BH10)) + Virion infectivity factor (Human immunodeficiency virus type 1 group M subtype B (isolate BRU/LAI)) + Virion infectivity factor (Human immunodeficiency virus type 1 group M subtype B (isolate PCV12)) + Virion infectivity factor (Human immunodeficiency virus type 1 group M subtype B (isolate HXB2)) + DNA dC->dU-editing enzyme APOBEC-3G (Homo sapiens) (UniProt P69720+P69721+P69722+P69723+Q9HC16)
# Assay: inhibitors of Vif binding to APOBEC3G peptide, primary screen, biochemical, TR-FRET, GST-Vif 1-94, biotin-A3G peptide, dose response retest (AID 1117319);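 also: Vif residues 1-94 fused to GST binding biotinylated APOBEC3G peptide 110-148; 0% = full assay without inhibitor and 100% = GST in place of GST-Vif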
# Conditions: stronger effect = higher value
row,Structure (SMILES),inhibition
1,Cc1c(NC(=O)c2cc(-c3ccco3)on2)c(=O)n(-c2ccccc2)n1C,inconclusive: 33.4%
2,CCCCn1c(=O)[nH]c(=O)c2c1nc(-c1ccc(-c3ccccc3Br)o1)n2CCOC,inconclusive: 45.3%
3,Cc1ccccc1N1C(S)=C(C#N)C(=O)NC1c1cccs1 (configuration not stated),inconclusive: 45.8%
4,CCOC(=O)c1sc(S(C)(=O)=O)c2c1CCc1conc1-2,inconclusive: 59.8%
5,O=C(/C=C/c1ccc2c(c1)OCO2)c1ccccn1,inconclusive: 51.7%
6,Cc1cc(C)c(S(=O)(=O)n2c([N+](=O)[O-])cnc2C)c(C)c1,inconclusive: 45.1%
7,CC(C)(C)NC(=O)C(c1ccco1)N(C(=O)c1csnn1)c1ccccc1 (configuration not stated),inconclusive: 39.4%
8,Cc1ccc(Cn2c(=N)n(CC(=O)c3ccc([N+](=O)[O-])cc3)c3ccccc32)cc1,inconclusive: 44.9%
9,O=C(NC1CCCC1)c1cnc2n(c1=O)CCS2,inconclusive: 38.7%
10,COc1ccc(-n2ncc3c(Nc4cccc(C)c4)ncnc32)cc1,inconclusive: 39.3%
11,CCOc1ccccc1NC(=O)c1cc2ccccc2oc1=O,inactive: 5.96%
12,O=C(COc1ccccc1O)Nc1ccc(Cl)cc1,inconclusive: 41.9%
13,O=C(NCc1ccccn1)/C(=N/O)c1ccccc1,inactive: 1.42%
14,Cc1nn2c(N3CCN(C(=O)c4ccco4)CC3)cc(C(C)(C)C)nc2c1-c1ccccc1,inconclusive: 43.4%
15,N=C1/C(=C\c2coc3ccc(O)cc3c2=O)C(=O)N=C2SC=CN12,inconclusive: 43.5%
16,CCOc1ccc(NC(=O)C(c2ccccn2)N(C(=O)CCl)c2ccc(F)cc2)cc1 (configuration not stated),inconclusive: 40.8%
17,COc1ccc(C)cc1Nc1nc(-c2c[nH]c3ccccc23)cs1,inconclusive: 43.2%
18,CCC1(C)N([O-])C(C)=C(c2ccccc2)[N+]1=O (configuration not stated),inactive: 4.55%
19,CCOC(=O)c1ccc(NC(=O)CCc2nc(-c3ccc(C)cc3)no2)cc1,inconclusive: 33.6%

row,Structure (SMILES),inhibition
1,O=C(C1=NN[C@@H]2C(=O)N(c3cccc(F)c3)C(=O)[C@H]12)c1cnccn1,inconclusive: 43.8%
2,CC(NC(=O)c1ccccc1[N+](=O)[O-])C1CC2CCC1C2 (configuration not stated),inactive: 1.73%
3,COc1cc2[nH]c(=O)c(C(=O)NCCCN3CCCCC3)c(O)c2cc1OC,inconclusive: 34.8%
4,CCCCNC(=O)c1ccccc1NS(=O)(=O)c1ccc2c(c1)OCCO2,inconclusive: 41.2%
5,CC(=O)Oc1ccccc1C(=O)N1CCN(S(=O)(=O)c2ccc3ccccc3c2)CC1,inactive: -7.33%
6,COC(CNC(=O)c1cccnc1)OC,inconclusive: 34.6%
7,CCOC(=O)c1c(C)[nH]c(C(=O)Cn2nnc(-c3ccc(Cl)cc3)n2)c1C,inconclusive: 27.7%
8,Cc1cccc(C)c1NC(=S)N(CCc1ccncc1)C(C)C,inconclusive: 40.3%
9,Nc1cc(S(=O)(=O)O)cc2ccc(S(=O)(=O)O)cc12,inactive: 0.1%
10,Cc1ccc2nc(-c3cccc(Br)c3)cc(C(=O)Nn3cnnc3)c2c1,inconclusive: 38.2%
11,O=C1CCCC2=C1C1c3ccccc3C(=O)N1c1ccc(C(=O)c3ccccc3)cc1N2 (configuration not stated),inconclusive: 38.7%
12,Cc1ccc(SC(=O)c2c([N+](=O)[O-])c(C)nn2C)cc1,inconclusive: 33.4%
13,Cc1cc2nc3c(nc2cc1C)C(O)=C3O,inconclusive: 45.4%
14,O=C(Nc1ccc(Cl)cn1)c1cnn2cccnc12,inconclusive: 52.5%
15,NS(=O)(=O)c1ccc(NC(=S)N2CCN(c3ccc(Cl)c(Cl)c3)CC2)cc1,inactive: -1.39%
16,CCCCS/C(N)=N/N=C/c1ccccc1O,inconclusive: 45%
17,C/C(=N\OC(=O)c1ccccc1)c1cc(-c2ccc(Cl)cc2)no1,inconclusive: 38%
18,Cc1cc(=O)[nH]c(-n2[nH]c3c(c2=O)CCCC3)n1,inconclusive: 53.2%
19,COc1ccc(O)c(C(=O)c2cnc3c(c2)c(C)nn3CCO)c1,inconclusive: 44.5%

# Taken from above:
# For inhibition, O=C(COc1ccccc1O)Nc1ccc(Cl)cc1 is entered as inconclusive: 41.9%
# For inhibition, COC(CNC(=O)c1cccnc1)OC is entered as inconclusive: 34.6%
# For inhibition, O=C1CCCC2=C1C1c3ccccc3C(=O)N1c1ccc(C(=O)c3ccccc3)cc1N2 (configuration not stated) is entered as inconclusive: 38.7%

# Additional structures follow.

row,Structure (SMILES),inhibition
1,COCCn1c(C)cc(C(=O)COC(=O)c2ccc3c(c2)NC(=O)CS3)c1C,inconclusive: 34.9%
2,COc1ccc(N(CC(=O)Nc2cc(C(=O)O)ccc2C)S(=O)(=O)c2c(C)noc2C)cc1,inconclusive: 24%
3,O=C(NCC(=O)N(Cc1cccs1)C(C(=O)NC1CCCCC1)c1cccnc1)c1ccco1 (configuration not stated),inconclusive: 38.9%
4,COc1ccc(N(C)S(=O)(=O)c2cccc(C(=O)Nc3cc(OC)ccc3OC)c2)cc1,inconclusive: 38.9%
5,COc1ccc(CNC(=O)C2CCC(CNc3c(N4CCCCC4)c(=O)c3=O)CC2)cc1 (configuration not stated),inconclusive: 44.4%
6,C(=C\c1ccco1)/C1=NN(c2ccccc2)C(c2ccco2)C1 (configuration not stated),inconclusive: 40.7%
7,Cc1cccc(C(=O)Nc2ncc(CN3CCOCC3)s2)c1,inconclusive: 34.5%
8,CN1c2ccsc2/C(=N/Nc2ccc(F)cc2)CS1(=O)=O,inactive: 12.5%
9,Fc1cccc(Nc2ncnc3sc4c(c23)CCC4)c1,inconclusive: 43.9%
10,CS(=O)(=O)N1CCN(C(=O)CCC2CCCC2)CC1,inconclusive: 33.2%
11,O=C(CCNC(=O)c1ccc(Br)o1)NCc1ccc(Cl)cc1,inconclusive: 34%
12,COc1ccc(/C=C2\N=C3CCCN3C2=O)cc1,inconclusive: 44.1%
13,CCc1ccc2[nH]c(=O)c(CN(CCN(C)C)C(=O)Nc3ccccc3OC)cc2c1,inconclusive: 33.3%
14,COc1cc(CC(NC(C)=O)C(=O)NC2CCN(c3nc(C)cc(C)c3C#N)CC2)cc(OC)c1 (configuration not stated),inconclusive: 52%
15,Cc1ccc2cc(C#N)c(NCc3ccco3)nc2c1,inconclusive: 42%
16,CCOC(=O)c1c(CN2CCCCC2)n(C)c2cc(Br)c(O)c(CN(C)C)c12,inconclusive: 60.7%
17,O=S(=O)(NCC(c1cccnc1)N1CCOCC1)c1ccc(Cl)cc1 (configuration not stated),inactive: 1.91%
18,CCN(CC)c1ccc(C=Nc2ccccc2)c(O)c1,inactive: 29.3%
19,CC(C)c1ccc(CNc2ccc(N3CCOCC3)cc2)cc1,inconclusive: 43.4%
